Results deposited as PubChem BioAssay AID602196 (INSERM, 2012).

- Screen: 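Genes whose knock-down alters cisplatin killing of lung cancer cells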
- Cell system: human A549 lung cancer cells
- Reagents: siRNA pair against human genes
- Duration: 48 h transfection before cisplatin; time from cisplatin to read-out not stated
- Conditions: cisplatin at a dose killing half of control-siRNA cells; exact dose and duration not given
- Measured: 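Cisplatin cell death as a shift from the 50% death seen with control siRNA; siRNAs toxic or growth-blocking alone scored 0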
- Scale: two-siRNA summed score (-2 to +2): higher = both siRNAs protect from cisplatin killing; -2 means both sensitise; mean protection from cisplatin (shift in death) and protection from cisplatin (shift in death), siRNA C and protection from cisplatin (shift in death), siRNA D: higher = protection from cisplatin killing
- Call rule: 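Each siRNA scores 0 if harmful alone by LDH or WST-1, otherwise +1 if it reduces and -1 if it increases cisplatin killing; a gene is active when both siRNAs agree (sum +2 or -2)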
- Calls: active = both siRNAs shift cisplatin killing the same way; inactive = no consistent shift, or siRNA harmful alone
Shown is an unselected part of about 23,000 reagents tested. In the full data, 455 (2%) are marked active. 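Active includes both protection and sensitisation; some change values fall well beyond the stated -50 to +50 range.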 Reagents against one gene are numbered here. The record does not give: the amount of reagent.

| gene | reagent no. | two-siRNA summed score (-2 to +2) | mean protection from cisplatin (shift in death) (%) | protection from cisplatin (shift in death), siRNA C (%) | protection from cisplatin (shift in death), siRNA D (%) | Outcome |
| --- | --- | --- | --- | --- | --- | --- |
| CCDC162P (GeneID 221262) | 1 | 0 | 6.5 | 2.8 | 10.2 | inactive |
| CCDC162P (GeneID 221262) | 2 | 0 | 12.5 | 23.2 | 1.7 | inactive |
| CCDC162P (GeneID 221262) | 3 | 1 | 9.7 | 5.2 | 14.1 | inactive |
| MGC14276 | 1 | 0 | 8.9 | 7.2 | 10.6 | inactive |
| DUOX1 (GeneID 53905) | 1 | 0 | 0.3 | 7.1 | -6.4 | inactive |
| FLJ34433 | 1 | 2 | 27.5 | 20.7 | 34.3 | active |
| GPR152 (GeneID 390212) | 1 | 0 | -14.8 | 0.2 | -29.9 | inactive |
| SFTPD (GeneID 6441) | 1 | 0 | -3.1 | -1.2 | -4.9 | inactive |
| HAVCR1 (GeneID 26762) | 1 | 0 | -9.9 | -13.4 | -6.4 | inactive |
| C1orf162 (GeneID 128346) | 1 | 0 | 1 | 3.7 | -1.6 | inactive |
| PROP1 (GeneID 5626) | 1 | -1 | -15.1 | -34.1 | 3.8 | inactive |
| LIMS1 (GeneID 3987) | 1 | 0 | -1.9 | 10.4 | -14.2 | inactive |
| RPL18 (GeneID 6141) | 1 | 0 | 22.7 | 26.9 | 18.4 | inactive |
| SP3 (GeneID 6670) | 1 | 0 | 3 | 7.3 | -1.3 | inactive |
| ARHGAP5 (GeneID 394) | 1 | 0 | 7.9 | 10.4 | 5.3 | inactive |
| STMN4 (GeneID 81551) | 1 | 0 | 0.7 | -0.2 | 1.6 | inactive |
| MFAP3L (GeneID 9848) | 1 | 0 | 8 | 9.3 | 6.6 | inactive |
| CRYM (GeneID 1428) | 1 | 0 | -17.1 | -14.3 | -19.9 | inactive |
| CRYM (GeneID 1428) | 2 | 0 | -3.1 | -3.6 | -2.7 | inactive |
| LOC90024 | 1 | 0 | 4.1 | 5.1 | 3.1 | inactive |
| CAPSL (GeneID 133690) | 1 | 0 | 4 | -1.3 | 9.3 | inactive |
| FANCB (GeneID 2187) | 1 | 0 | 8.2 | 5 | 11.4 | inactive |
| FANCB (GeneID 2187) | 2 | 1 | 5.9 | 12.7 | -1 | inactive |
| LOC286528 | 1 | 0 | 2 | -3.8 | 7.7 | inactive |
| SPATA13 (GeneID 221178) | 1 | 0 | 4.1 | 1.1 | 7 | inactive |
| AK4 (GeneID 205) | 1 | -1 | -3.1 | -13.4 | 7.2 | inactive |
| AK4 (GeneID 205) | 2 | 1 | 4.1 | 18.8 | -10.7 | inactive |
| LIME1 (GeneID 54923) | 1 | 0 | 12.7 | 11.2 | 14.2 | inactive |
| DHFR (GeneID 1719) | 1 | 0 | -12.5 | -4 | -20.9 | inactive |
| LOC391169 | 1 | 0 | 15.3 | 28.3 | 2.3 | inactive |
| PCDHB1 (GeneID 29930) | 1 | 0 | 20.5 | 43.4 | -2.3 | inactive |
| WDFY4 (GeneID 57705) | 1 | 0 | 2.9 | 7.6 | -1.8 | inactive |
| LOC388620 | 1 | 1 | 9.8 | 15 | 4.5 | inactive |
| GSDME (GeneID 1687) | 1 | 0 | 3.1 | 11 | -4.8 | inactive |
| LOC200731 | 1 | 1 | 12.3 | 4.1 | 20.4 | inactive |
| LINC00951 (GeneID 401260) | 1 | 0 | -0.2 | 2.2 | -2.6 | inactive |
| METRN (GeneID 79006) | 1 | 0 | 3.1 | 3.5 | 2.8 | inactive |
| SNX7 (GeneID 51375) | 1 | 1 | 12.2 | 4.6 | 19.8 | inactive |
| CCL5 (GeneID 6352) | 1 | -1 | -8.4 | 5.7 | -22.5 | inactive |

As entered above.
FLJ34433, two-siRNA summed score (-2 to +2) = 2
Value of PCDHB1 (GeneID 29930) in “protection from cisplatin (shift in death), siRNA D (%)”: -2.3
Value of SNX7 (GeneID 51375) in “Outcome”: inactive
Value of CRYM (GeneID 1428) #2 in “protection from cisplatin (shift in death), siRNA D (%)”: -2.7
